# In the supplement of paper PMC12819154, “High-throughput peptide-centric local stability assay extends protein–ligand identification to membrane proteins, tissues and bacteria” (Nature Structural & Molecular Biology, 2025):
# Amino acid sequences for entries named in this document (tags omitted). A change or cut given only in a name is not applied to a line headed by its entry.
# UniProt P31751: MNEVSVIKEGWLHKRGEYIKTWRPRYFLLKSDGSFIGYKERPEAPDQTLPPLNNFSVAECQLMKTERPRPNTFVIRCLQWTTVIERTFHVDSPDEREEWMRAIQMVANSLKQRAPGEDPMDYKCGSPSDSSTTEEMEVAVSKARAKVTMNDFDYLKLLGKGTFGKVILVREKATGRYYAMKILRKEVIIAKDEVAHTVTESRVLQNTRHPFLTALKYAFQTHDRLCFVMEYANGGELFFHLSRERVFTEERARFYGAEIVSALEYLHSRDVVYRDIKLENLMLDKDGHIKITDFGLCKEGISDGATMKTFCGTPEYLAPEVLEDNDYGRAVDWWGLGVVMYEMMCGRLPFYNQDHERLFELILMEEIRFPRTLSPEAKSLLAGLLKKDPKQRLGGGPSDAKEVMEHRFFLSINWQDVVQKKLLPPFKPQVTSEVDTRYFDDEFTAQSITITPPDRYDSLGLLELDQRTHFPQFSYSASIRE
# UniProt P38117: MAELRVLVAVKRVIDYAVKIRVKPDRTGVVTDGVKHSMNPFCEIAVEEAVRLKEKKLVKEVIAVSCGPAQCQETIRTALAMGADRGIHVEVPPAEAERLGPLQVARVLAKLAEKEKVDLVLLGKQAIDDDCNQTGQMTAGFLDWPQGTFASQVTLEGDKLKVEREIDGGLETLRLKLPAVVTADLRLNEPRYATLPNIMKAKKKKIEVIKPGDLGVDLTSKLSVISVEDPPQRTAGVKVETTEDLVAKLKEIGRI
# UniProt P30566: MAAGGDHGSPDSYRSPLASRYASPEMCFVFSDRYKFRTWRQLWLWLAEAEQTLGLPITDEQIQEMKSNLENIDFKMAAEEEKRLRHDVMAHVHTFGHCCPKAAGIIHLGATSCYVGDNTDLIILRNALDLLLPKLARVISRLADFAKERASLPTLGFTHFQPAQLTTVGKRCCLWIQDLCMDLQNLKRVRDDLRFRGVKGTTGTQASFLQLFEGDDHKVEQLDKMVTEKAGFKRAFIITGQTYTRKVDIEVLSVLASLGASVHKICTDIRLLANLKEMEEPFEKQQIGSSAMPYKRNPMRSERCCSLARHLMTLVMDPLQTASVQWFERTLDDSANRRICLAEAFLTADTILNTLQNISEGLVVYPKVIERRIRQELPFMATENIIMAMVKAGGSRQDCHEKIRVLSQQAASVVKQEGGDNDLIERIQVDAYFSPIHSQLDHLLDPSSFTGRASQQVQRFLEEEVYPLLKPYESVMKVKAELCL
# UniProt P40855: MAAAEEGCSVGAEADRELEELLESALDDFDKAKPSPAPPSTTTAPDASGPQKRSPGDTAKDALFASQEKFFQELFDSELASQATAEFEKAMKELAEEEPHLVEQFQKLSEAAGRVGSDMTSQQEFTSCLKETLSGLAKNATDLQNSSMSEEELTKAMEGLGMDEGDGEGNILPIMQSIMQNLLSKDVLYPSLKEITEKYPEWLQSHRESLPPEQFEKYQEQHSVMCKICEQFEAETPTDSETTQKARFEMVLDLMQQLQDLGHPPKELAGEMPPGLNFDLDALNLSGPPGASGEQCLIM
# UniProt P43365, whole entry: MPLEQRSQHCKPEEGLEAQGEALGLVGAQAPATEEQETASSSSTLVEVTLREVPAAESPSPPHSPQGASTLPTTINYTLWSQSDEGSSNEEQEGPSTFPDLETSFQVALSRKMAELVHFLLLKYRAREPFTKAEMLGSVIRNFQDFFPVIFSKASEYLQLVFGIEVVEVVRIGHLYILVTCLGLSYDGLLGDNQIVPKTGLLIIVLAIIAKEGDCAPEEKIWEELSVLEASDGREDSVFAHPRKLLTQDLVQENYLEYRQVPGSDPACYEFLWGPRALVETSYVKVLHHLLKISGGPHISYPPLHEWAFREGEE
# UniProt P43357, whole entry: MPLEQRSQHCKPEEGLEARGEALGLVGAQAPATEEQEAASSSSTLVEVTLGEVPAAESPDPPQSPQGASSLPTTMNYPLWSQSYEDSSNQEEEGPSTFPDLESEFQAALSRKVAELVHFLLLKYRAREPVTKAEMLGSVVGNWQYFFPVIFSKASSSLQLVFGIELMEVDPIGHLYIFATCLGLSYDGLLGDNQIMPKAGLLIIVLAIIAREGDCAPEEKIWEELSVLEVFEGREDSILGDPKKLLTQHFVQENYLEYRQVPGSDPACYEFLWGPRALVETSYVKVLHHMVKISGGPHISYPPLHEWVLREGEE
# UniProt P39060, whole entry: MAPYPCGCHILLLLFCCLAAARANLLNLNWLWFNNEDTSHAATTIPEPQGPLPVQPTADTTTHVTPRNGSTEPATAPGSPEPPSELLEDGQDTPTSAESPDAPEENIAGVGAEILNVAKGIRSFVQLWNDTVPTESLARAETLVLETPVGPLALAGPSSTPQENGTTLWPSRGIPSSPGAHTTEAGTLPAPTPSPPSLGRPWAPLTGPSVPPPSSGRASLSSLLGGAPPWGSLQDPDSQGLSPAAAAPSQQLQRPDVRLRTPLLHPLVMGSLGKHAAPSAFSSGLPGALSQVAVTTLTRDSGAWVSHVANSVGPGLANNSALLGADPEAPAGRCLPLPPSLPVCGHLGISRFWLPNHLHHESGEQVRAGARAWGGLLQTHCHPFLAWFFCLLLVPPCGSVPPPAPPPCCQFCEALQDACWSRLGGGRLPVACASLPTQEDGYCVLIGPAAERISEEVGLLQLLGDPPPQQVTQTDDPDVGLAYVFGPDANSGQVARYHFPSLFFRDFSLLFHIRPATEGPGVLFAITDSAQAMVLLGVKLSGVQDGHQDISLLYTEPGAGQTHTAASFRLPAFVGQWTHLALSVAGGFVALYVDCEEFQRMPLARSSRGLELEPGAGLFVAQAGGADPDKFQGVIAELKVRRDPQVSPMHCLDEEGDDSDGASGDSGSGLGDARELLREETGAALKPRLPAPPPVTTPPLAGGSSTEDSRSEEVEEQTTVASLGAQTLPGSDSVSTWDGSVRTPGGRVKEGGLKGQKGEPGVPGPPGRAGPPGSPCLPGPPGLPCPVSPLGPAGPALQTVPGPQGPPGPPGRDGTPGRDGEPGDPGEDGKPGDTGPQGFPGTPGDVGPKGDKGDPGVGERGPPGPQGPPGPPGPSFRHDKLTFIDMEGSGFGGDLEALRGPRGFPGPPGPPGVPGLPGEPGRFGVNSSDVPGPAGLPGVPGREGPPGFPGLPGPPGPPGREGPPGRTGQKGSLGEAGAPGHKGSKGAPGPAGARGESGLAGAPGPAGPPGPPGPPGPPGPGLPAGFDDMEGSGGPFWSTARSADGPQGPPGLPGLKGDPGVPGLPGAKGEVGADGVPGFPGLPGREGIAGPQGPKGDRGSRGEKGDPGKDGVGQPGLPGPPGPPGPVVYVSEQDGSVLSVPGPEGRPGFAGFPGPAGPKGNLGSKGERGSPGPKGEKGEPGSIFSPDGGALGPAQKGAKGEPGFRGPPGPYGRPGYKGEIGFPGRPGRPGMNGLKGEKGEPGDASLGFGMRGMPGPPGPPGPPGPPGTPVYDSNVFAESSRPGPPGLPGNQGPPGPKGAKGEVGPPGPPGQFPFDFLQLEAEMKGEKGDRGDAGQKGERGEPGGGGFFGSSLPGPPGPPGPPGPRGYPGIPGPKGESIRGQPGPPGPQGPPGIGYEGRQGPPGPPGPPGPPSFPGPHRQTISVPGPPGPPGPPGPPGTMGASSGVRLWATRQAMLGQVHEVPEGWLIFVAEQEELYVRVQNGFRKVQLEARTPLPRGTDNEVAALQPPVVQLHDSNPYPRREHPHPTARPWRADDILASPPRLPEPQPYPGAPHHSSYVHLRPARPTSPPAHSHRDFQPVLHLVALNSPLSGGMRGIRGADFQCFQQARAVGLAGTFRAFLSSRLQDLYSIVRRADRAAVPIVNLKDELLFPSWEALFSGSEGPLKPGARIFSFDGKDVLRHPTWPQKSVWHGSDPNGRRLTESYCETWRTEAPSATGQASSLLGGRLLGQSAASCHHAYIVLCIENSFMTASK
# UniProt P29218: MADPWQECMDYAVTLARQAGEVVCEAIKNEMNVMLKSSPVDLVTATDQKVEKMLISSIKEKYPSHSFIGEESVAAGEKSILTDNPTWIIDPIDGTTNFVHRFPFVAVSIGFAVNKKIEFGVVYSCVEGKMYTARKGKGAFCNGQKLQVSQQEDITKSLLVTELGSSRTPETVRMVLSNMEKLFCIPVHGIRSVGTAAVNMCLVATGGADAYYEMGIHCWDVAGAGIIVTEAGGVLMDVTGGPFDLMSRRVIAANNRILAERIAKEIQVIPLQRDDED
# UniProt P32929, whole entry: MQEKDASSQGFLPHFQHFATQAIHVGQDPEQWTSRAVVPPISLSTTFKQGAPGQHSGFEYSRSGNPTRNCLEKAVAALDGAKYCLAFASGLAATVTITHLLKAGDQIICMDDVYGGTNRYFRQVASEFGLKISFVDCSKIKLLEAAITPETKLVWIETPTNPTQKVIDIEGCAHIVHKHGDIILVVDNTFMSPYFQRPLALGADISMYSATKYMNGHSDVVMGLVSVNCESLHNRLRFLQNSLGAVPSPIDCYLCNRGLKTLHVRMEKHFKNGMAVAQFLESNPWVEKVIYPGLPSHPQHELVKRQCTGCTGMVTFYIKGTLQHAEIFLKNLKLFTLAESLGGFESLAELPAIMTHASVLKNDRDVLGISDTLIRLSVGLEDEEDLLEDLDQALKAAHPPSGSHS
# UniProt P35579, whole entry: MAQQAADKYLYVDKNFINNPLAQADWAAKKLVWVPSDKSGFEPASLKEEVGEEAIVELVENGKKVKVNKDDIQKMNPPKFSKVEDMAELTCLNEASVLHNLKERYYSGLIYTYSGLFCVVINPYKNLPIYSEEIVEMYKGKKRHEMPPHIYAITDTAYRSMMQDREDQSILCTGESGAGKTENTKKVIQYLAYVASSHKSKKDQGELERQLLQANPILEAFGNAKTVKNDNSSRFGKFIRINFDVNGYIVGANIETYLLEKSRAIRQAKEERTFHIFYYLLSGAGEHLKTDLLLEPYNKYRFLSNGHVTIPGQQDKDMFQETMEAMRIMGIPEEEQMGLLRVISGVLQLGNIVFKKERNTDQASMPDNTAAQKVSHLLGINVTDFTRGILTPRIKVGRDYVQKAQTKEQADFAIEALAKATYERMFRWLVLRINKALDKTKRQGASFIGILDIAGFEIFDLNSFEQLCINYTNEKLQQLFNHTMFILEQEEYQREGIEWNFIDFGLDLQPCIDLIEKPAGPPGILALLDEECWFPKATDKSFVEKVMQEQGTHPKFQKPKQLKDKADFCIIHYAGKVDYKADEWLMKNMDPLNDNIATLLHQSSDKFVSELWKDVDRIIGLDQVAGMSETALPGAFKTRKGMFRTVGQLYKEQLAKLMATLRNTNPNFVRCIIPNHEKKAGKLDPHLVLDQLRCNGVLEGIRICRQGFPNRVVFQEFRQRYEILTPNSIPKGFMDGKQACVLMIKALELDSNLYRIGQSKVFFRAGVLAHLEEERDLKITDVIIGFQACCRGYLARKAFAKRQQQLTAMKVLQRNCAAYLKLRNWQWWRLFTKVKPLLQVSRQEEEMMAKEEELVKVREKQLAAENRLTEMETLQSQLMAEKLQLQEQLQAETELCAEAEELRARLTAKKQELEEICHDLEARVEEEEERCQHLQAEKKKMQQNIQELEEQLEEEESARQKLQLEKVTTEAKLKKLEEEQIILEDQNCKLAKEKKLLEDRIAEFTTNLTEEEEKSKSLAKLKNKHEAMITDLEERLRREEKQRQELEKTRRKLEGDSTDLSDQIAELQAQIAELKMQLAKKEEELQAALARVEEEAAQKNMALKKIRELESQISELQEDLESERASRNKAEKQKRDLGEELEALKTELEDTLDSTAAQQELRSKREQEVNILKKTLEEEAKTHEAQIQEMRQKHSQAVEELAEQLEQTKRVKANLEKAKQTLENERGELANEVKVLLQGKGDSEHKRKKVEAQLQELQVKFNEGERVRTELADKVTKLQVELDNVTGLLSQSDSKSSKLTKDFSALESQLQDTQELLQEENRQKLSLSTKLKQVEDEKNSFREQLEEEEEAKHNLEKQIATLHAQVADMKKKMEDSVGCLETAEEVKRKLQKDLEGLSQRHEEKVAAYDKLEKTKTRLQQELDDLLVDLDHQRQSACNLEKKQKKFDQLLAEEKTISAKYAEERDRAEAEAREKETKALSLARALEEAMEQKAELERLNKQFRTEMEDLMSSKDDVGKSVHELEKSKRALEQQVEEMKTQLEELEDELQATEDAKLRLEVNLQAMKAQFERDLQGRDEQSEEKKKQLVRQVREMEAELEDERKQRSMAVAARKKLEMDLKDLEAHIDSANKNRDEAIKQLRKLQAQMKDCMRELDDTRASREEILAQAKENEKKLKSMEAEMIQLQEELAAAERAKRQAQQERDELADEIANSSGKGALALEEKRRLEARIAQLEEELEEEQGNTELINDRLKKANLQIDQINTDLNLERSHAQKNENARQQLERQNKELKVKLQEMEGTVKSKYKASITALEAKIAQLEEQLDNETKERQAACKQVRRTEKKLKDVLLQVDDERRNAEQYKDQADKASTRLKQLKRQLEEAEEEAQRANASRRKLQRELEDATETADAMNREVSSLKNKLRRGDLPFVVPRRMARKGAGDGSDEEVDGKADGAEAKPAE
# This is one part of the list. Most entries show no effect beyond the scatter of the controls.
# Compound: Cc1nc(Nc2ncc(C(=O)Nc3c(C)cccc3Cl)s2)cc(N2CCN(CCO)CC2)n1 [dasatinib]
# Test: log2 fold change of tryptic peptide abundance, ligand vs vehicle (limited proteolysis) (log2 ratio); higher = more trypsin-susceptible (destabilized)
# Conditions: ligand concentration: 5 uM; sample: K562 cleared lysate
row,Target,log2 fold change
1,"PEBP1 (peptide sequence: CDEPILSNR, peptide start residue: 133) (UniProt P30086)",-0.371
2,"UniProt P30049 (peptide sequence: IEANEALVK, peptide start residue: 157)",-0.0427
3,"AKT2 (peptide sequence: LPFYNQDHER, peptide start residue: 348) (UniProt P31751)",0.403
4,"RPL22 (peptide sequence: SKITVTSEVPFSKR, peptide start residue: 68) (UniProt P35268)",-0.0458
5,"ETFB (peptide sequence: EIDGGLETLR, peptide start residue: 165) (UniProt P38117)",-0.0871
6,"ADSL (peptide sequence: EMEEPFEK, peptide start residue: 277) (UniProt P30566)",-0.645
7,"ADD2 (peptide sequence: EQNRQDVK, peptide start residue: 504) (UniProt P35612)",0.816
8,"SNCA (peptide sequence: TKEGVVHGVATVAEK, peptide start residue: 44) (UniProt P37840)",-0.216
9,"UniProt P45984 (peptide sequence: EVMDWEER, peptide start residue: 359)",0.181
10,"CDKN2C (peptide sequence: TGFAVIHDAAR, peptide start residue: 69) (UniProt P42773)",-0.653
11,"PML (peptide sequence: SSPEQPRPSTSK, peptide start residue: 504) (UniProt P29590)",-0.278
12,"PPIF (peptide sequence: TSKKIVITDCGQLS, peptide start residue: 194) (UniProt P30405)",0.113
13,"WAS (peptide sequence: ADIGAPSGFK, peptide start residue: 236) (UniProt P42768)",0.134
14,"RBL1 (peptide sequence: LFGEDPPKEMLMDK, peptide start residue: 660) (UniProt P28749)",0.181
15,"UniProt P40855 (peptide sequence: ELAEEEPHLVEQFQK, peptide start residue: 93)",0.136
16,"MAGEA12 (peptide sequence: KMAELVHFLLLK, peptide start residue: 112) (UniProt P43365)",0.277
17,"RRM2 (peptide sequence: AAAPGVEDEPLLR, peptide start residue: 62) (UniProt P31350)",-0.106
18,"NKTR (peptide sequence: GDKLSDPCSSR, peptide start residue: 386) (UniProt P30414)",0.567
19,"STAT1 (peptide sequence: QDWEHAANDVSFATIR, peptide start residue: 41) (UniProt P42224)",0.102
20,"PHKA2 (peptide sequence: RLDGAINRVPVGFYQR, peptide start residue: 1072) (UniProt P46019)",-0.243
21,"MAGEA3 (peptide sequence: SQHCKPEEGLEAR, peptide start residue: 7) (UniProt P43357)",0.0998
22,"ID1 (peptide sequence: CLSEQSVAISR, peptide start residue: 34) (UniProt P41134)",0.15
23,"CHKA (peptide sequence: LYGIFPQGR, peptide start residue: 196) (UniProt P35790)",0.321
24,"COL18A1 (peptide sequence: ELLREETGAALKPR, peptide start residue: 675) (UniProt P39060)",0.669
25,"IMPA1 (peptide sequence: EKYPSHSFIGEESVAAGEK, peptide start residue: 60) (UniProt P29218)",0.139
26,"CTH (peptide sequence: QVASEFGLK, peptide start residue: 123) (UniProt P32929)",-0.333
27,"HMGCL (peptide sequence: VAQATCKL, peptide start residue: 318) (UniProt P35914)",0.067
28,"MYH9 (peptide sequence: QLEEAEEEAQRANASRR, peptide start residue: 1878) (UniProt P35579)",-1.01

# Taken from the listing for reference:
row,Target,log2 fold change
13,"WAS (peptide sequence: ADIGAPSGFK, peptide start residue: 236) (UniProt P42768)",0.134
14,"RBL1 (peptide sequence: LFGEDPPKEMLMDK, peptide start residue: 660) (UniProt P28749)",0.181
